PubChem BioAssay AID686938, Drosophila RNAi Screening Center | 2013
Assay: 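Looking for CRAC channel components and the factors controlling them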 (primary screen). Cells: Drosophila S2R+ cells. Reagent: long dsRNA against Drosophila genes, about 0.25 µg dsRNA per well, roughly 10,000 cells. Time to read-out: 5 days of knock-down before the calcium assay. Treatment: thapsigargin (SERCA pump blocker) to empty calcium stores; entry signal taken 4 min after adding it. Measured: 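Per-well fluo-4 fluorescence in two replicates, unnormalised, measured in resting cells and 4 min after store depletion by the SERCA blocker thapsigargin; ratio of the two present in few wells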. Scale: calcium entry signal: higher = stronger calcium signal after store depletion; resting calcium signal: higher = higher resting calcium signal. Units: calcium entry signal in fluorescence units; resting calcium signal in fluorescence units. Call rule: 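Hit if the duplicate-averaged plate z-score for entry over resting signal is under −3; wells with weak total dye signal (Fmax z < −2) or more than 5 off-targets removed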. Meaning of the calls: active = strongly reduced calcium entry; inactive = no strong reduction.
The deposit covers about 23,000 reagents; below is an unselected part of those that have a named target and a result. Over the whole deposit, 75 (0.33%) are marked active. 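Raw plate signals without normalisation; calls rest on plate z-scores that were not deposited; ratio present for only 364 wells.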 A number with no mark means an inactive call. The numbers tell different reagents against one gene apart. Names joined by + are all predicted targets of the reagent. Reagent sequences are not shown. Not stated in the record: the dose of the treatment.

CG2182 gave calcium entry signal, replicate 1 = 3.19e7; calcium entry signal, replicate 2 = 3.83e7; resting calcium signal, replicate 1 = 1.42e7; resting calcium signal, replicate 2 = 1.64e7.
Cat showed calcium entry signal, replicate 1 = 2.33e7; calcium entry signal, replicate 2 = 5.13e7; resting calcium signal, replicate 1 = 1.37e7; resting calcium signal, replicate 2 = 2.19e7.
Against CG17768 + LSm-4 the deposit lists calcium entry signal, replicate 1 = 2.95e7; calcium entry signal, replicate 2 = 3.82e7; resting calcium signal, replicate 1 = 1.47e7; resting calcium signal, replicate 2 = 1.78e7.
With knock-down of Pgm2b the results were calcium entry signal, replicate 1 = 4.29e7; calcium entry signal, replicate 2 = 4.55e7; resting calcium signal, replicate 1 = 1.82e7; resting calcium signal, replicate 2 = 2.07e7.
Against Larp4B #1 the deposit lists calcium entry signal, replicate 1 = 2.48e7; calcium entry signal, replicate 2 = 2.79e7; resting calcium signal, replicate 1 = 1.39e7; resting calcium signal, replicate 2 = 1.47e7.
With knock-down of Larp4B #2, the record shows calcium entry signal, replicate 1 = 3.30e7; calcium entry signal, replicate 2 = 3.07e7; resting calcium signal, replicate 1 = 1.57e7; resting calcium signal, replicate 2 = 1.40e7.
After knock-down of Zasp52 #1, the screen gave calcium entry signal, replicate 1 = 2.56e7; calcium entry signal, replicate 2 = 3.77e7; resting calcium signal, replicate 1 = 1.23e7; resting calcium signal, replicate 2 = 1.92e7.
For Zasp52 #2, the entry reads calcium entry signal, replicate 1 = 2.65e7; calcium entry signal, replicate 2 = 5.01e7; resting calcium signal, replicate 1 = 1.18e7; resting calcium signal, replicate 2 = 2.33e7.
Against CG5989, the values are calcium entry signal, replicate 1 = 4.97e7; calcium entry signal, replicate 2 = 2.81e7; resting calcium signal, replicate 1 = 3.11e7; resting calcium signal, replicate 2 = 1.24e7.
Saf-B scored calcium entry signal, replicate 1 = 4.62e7; calcium entry signal, replicate 2 = 3.66e7; resting calcium signal, replicate 1 = 2.09e7; resting calcium signal, replicate 2 = 1.75e7.
With knock-down of Alg3, the screen gave calcium entry signal, replicate 1 = 3.77e7; resting calcium signal, replicate 1 = 1.84e7.
CG30486 scored calcium entry signal, replicate 1 = 3.25e7; calcium entry signal, replicate 2 = 4.20e7; resting calcium signal, replicate 1 = 1.71e7; resting calcium signal, replicate 2 = 1.83e7.
After knock-down of Snx3, the screen gave calcium entry signal, replicate 1 = 3.80e7; calcium entry signal, replicate 2 = 4.19e7; resting calcium signal, replicate 1 = 2.05e7; resting calcium signal, replicate 2 = 2.22e7.
CG17300 gave calcium entry signal, replicate 1 = 2.64e7; calcium entry signal, replicate 2 = 3.82e7; resting calcium signal, replicate 1 = 1.42e7; resting calcium signal, replicate 2 = 1.62e7.
For rictor, the values are calcium entry signal, replicate 1 = 5.06e7; calcium entry signal, replicate 2 = 5.32e7; resting calcium signal, replicate 1 = 2.62e7; resting calcium signal, replicate 2 = 2.43e7.
After knock-down of erm, the screen gave calcium entry signal, replicate 1 = 4.11e7; resting calcium signal, replicate 1 = 2.36e7.
With knock-down of Sod3, the screen gave calcium entry signal, replicate 1 = 2.75e7; calcium entry signal, replicate 2 = 3.57e7; resting calcium signal, replicate 1 = 1.29e7; resting calcium signal, replicate 2 = 1.62e7.
With knock-down of lz #1 the results were calcium entry signal, replicate 1 = 3.78e7; calcium entry signal, replicate 2 = 4.88e7; resting calcium signal, replicate 1 = 1.80e7; resting calcium signal, replicate 2 = 2.69e7.
Silencing of lz #2 gave: calcium entry signal, replicate 1 = 2.96e7; calcium entry signal, replicate 2 = 4.00e7; resting calcium signal, replicate 1 = 1.47e7; resting calcium signal, replicate 2 = 2.24e7.
CG1894 showed calcium entry signal, replicate 1 = 3.45e7; calcium entry signal, replicate 2 = 4.93e7; resting calcium signal, replicate 1 = 1.76e7; resting calcium signal, replicate 2 = 2.08e7.
For CG32221, the entry reads calcium entry signal, replicate 1 = 3.86e7; calcium entry signal, replicate 2 = 3.36e7; resting calcium signal, replicate 1 = 1.91e7; resting calcium signal, replicate 2 = 1.49e7.
